# Data from PMC4670726, “Systematic discovery of linear binding motifs targeting an ancient protein interaction surface on MAP kinases” (Molecular Systems Biology, 2015).
# Chains of the proteins cited; added tags and fusions are not shown.
# UniProt P45983: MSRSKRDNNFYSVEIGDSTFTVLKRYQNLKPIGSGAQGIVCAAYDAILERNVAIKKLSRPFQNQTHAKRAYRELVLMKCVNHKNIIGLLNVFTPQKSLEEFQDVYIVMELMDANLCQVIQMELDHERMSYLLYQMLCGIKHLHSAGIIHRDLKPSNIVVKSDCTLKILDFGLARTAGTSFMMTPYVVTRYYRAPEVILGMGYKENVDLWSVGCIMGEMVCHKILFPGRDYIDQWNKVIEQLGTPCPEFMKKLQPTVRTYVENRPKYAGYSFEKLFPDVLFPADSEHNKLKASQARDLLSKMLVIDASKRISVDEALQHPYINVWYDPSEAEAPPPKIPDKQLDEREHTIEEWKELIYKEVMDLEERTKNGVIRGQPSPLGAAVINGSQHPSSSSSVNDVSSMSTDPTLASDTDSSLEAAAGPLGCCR
# These are yes or no findings as the source states them, for the method shown. Some results given as binding are weak or reduced against the parent protein; the word gives no strength.
# Biological target: JNK1 (as used in the fluorescence polarization titrations) (human) (UniProt P45983)
# Assay: fluorescence polarisation; competition: 50 nM N-terminally labeled reporter peptide mixed with MAPK at ~60–80% complex formation, increasing amounts of unlabeled synthetic test peptide added; 384-well plates, triplicates; Ki from a competition binding equation; both purified
binder,measurement,value
"RKERPTSLNFPL (N-terminally labeled with carboxyfluorescein or carboxytetramethylrhodamine) [pep JIP3, labeled reporter peptide]",binding,binds
